These are yes or no findings as the source states them, for the method shown. Some results given as binding are weak or reduced against the parent protein; the word gives no strength.
B1: MPH12-v1 (VH C111/C112.2 variant of Tables 18 and 19) (antibody, V domains shown)
VH: QVQLVESGGGLVKPGGSLRLSCVASGFTFSGFYMKWIRQAPGKGLEWVSSISASGSYTNYADSVEGRFTVSRDNAKNSLFLLMSSLRAEDTAVYYCARGDSYSGASASHGEFFHKWGQGTLVTVSS
VL: QSVLTQPPSVSGAPGQRVTISCTGSDSNIGADFDVHWYQQLPGTAPKLLIYGNINRPSGVPDRFSGSRSGTSAFLAITRLQAEDEADYYCQSYDRSLHYVFGAGTKVTVL
B2: MPH12-v2 (VH C111/C112.2 variant of Tables 18 and 19) (antibody, V domains shown)
VH: QVQLVESGGGLVKPGGSLRLSCVASGFTFSGFYMKWIRQAPGKGLEWVSSISASGSYTNYADSVEGRFTVSRDNAKNSLFLLMSSLRAEDTAVYYCARGDSYAGASAAHGEFFHKWGQGTLVTVSS
VL: QSVLTQPPSVSGAPGQRVTISCTGSDSNIGADFDVHWYQQLPGTAPKLLIYGNINRPSGVPDRFSGSRSGTSAFLAITRLQAEDEADYYCQSYDRSLHYVFGAGTKVTVL

Target: DS-Cav1 RSV F (respiratory syncytial virus (RSV); strain not stated in the example) (UniProt P13843)
Assay: ELISA on RSV-F Ds-Cav1, 1 ug/ml

| Binder | binding |
| --- | --- |
| B1 | binds |
| B2 | binds |

— patent publication US20260028391A1
